{"source": "PubChem BioAssay AID686937 (Drosophila RNAi Screening Center, 2013)", "purpose": "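Genes whose loss weakens secretory pathway function in fly cells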 (primary screen)", "cell system": "Drosophila S2 cells expressing secreted horseradish peroxidase", "reagent": "long dsRNA against Drosophila genes", "timing": "about 5.5 days (5 days dsRNA, then 12 h reporter induction)", "conditions": "reporter expression induced after 5 days of dsRNA, read 12 h later; inducer not stated", "read-out": "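After 5 days of dsRNA and 12 h of reporter induction, medium peroxidase read by chemiluminescence and scored as per-plate z-score; higher values mean more reporter released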", "scale": "z-score: higher = more reporter secreted into medium", "note": "In all, the deposit lists about 23,000 reagents; this is a random part of those that have a named target and a result. 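Reduced-secretion tags in replicate 1 do not always agree with the z-scores; no criterion for assigning the tags was given.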 Reagents against one gene are numbered here. A plus sign joins genes that one reagent is predicted to hit. Further read-outs or replicates are left out here. Reagent sequences are not shown. Not stated in the record: the amount of reagent."}
{"Target gene": "CG32437", "dsRNA no.": 1, "z-score, replicate 1": 0.35}
{"Target gene": "CG32437", "dsRNA no.": 2, "z-score, replicate 1": -0.26}
{"Target gene": "srl", "dsRNA no.": 1, "z-score, replicate 1": 0.31}
{"Target gene": "UbcE2H", "dsRNA no.": 1, "z-score, replicate 1": 0.32}
{"Target gene": "CG18748", "dsRNA no.": 1, "z-score, replicate 1": 0.43}
{"Target gene": "ATP8A", "dsRNA no.": 1, "z-score, replicate 1": 0.47}
{"Target gene": "ATP8A", "dsRNA no.": 2, "z-score, replicate 1": 0.1}
{"Target gene": "ATP8A", "dsRNA no.": 3, "z-score, replicate 1": 0.35}
{"Target gene": "l(3)73Ah", "dsRNA no.": 1, "z-score, replicate 1": 0.19}
{"Target gene": "nemy", "dsRNA no.": 1, "z-score, replicate 1": 0.51}
{"Target gene": "nemy", "dsRNA no.": 2, "z-score, replicate 1": 0.53}
{"Target gene": "CG13045", "dsRNA no.": 1, "z-score, replicate 1": 0.58}
{"Target gene": "CG8155", "dsRNA no.": 1, "z-score, replicate 1": 0.26}
{"Target gene": "CG8155", "dsRNA no.": 2, "z-score, replicate 1": 0.22}
{"Target gene": "Ugt49B1", "dsRNA no.": 1, "z-score, replicate 1": 0.05}
{"Target gene": "CG30339", "dsRNA no.": 1, "z-score, replicate 1": 0.69}
{"Target gene": "CG42562", "dsRNA no.": 1, "z-score, replicate 1": 0.52}
{"Target gene": "GstT4", "dsRNA no.": 1, "z-score, replicate 1": -0.13}
{"Target gene": "Eig71Ej", "dsRNA no.": 1, "z-score, replicate 1": 0.28}
{"Target gene": "drn + CG43675", "dsRNA no.": 1, "z-score, replicate 1": 0.21}
{"Target gene": "l(3)psg2", "dsRNA no.": 1, "z-score, replicate 1": 0.58}
{"Target gene": "Nep4", "dsRNA no.": 1, "z-score, replicate 1": 0.3}
{"Target gene": "CG32533", "dsRNA no.": 1, "z-score, replicate 1": 0.12}
{"Target gene": "CG32533", "dsRNA no.": 2, "z-score, replicate 1": 0.31}
{"Target gene": "RabGGTa", "dsRNA no.": 1, "z-score, replicate 1": 0.26}
{"Target gene": "Ctns", "dsRNA no.": 1, "z-score, replicate 1": 0.35}
{"Target gene": "CG12998", "dsRNA no.": 1, "z-score, replicate 1": 0.33}
{"Target gene": "Usp15-31", "dsRNA no.": 1, "z-score, replicate 1": 0.05}
{"Target gene": "Usp15-31", "dsRNA no.": 2, "z-score, replicate 1": -1.41}
{"Target gene": "boly", "dsRNA no.": 1, "z-score, replicate 1": -0.9}
{"Target gene": "HLH54F", "dsRNA no.": 1, "z-score, replicate 1": -0.08}
{"Target gene": "drosha", "dsRNA no.": 1, "z-score, replicate 1": 0.42}
{"Target gene": "CG2111", "dsRNA no.": 1, "z-score, replicate 1": 0.36}
{"Target gene": "maca", "dsRNA no.": 1, "z-score, replicate 1": 0.11}
{"Target gene": "Ufl1", "dsRNA no.": 1, "z-score, replicate 1": 0.34}
{"Target gene": "RfC3", "dsRNA no.": 1, "z-score, replicate 1": -0.08}
{"Target gene": "Cyt-c-p", "dsRNA no.": 1, "z-score, replicate 1": 0.31}
{"Target gene": "CG17359", "dsRNA no.": 1, "z-score, replicate 1": 0.39}
{"Target gene": "CG11857", "dsRNA no.": 1, "z-score, replicate 1": -0.48}
{"Target gene": "CG12519", "dsRNA no.": 1, "z-score, replicate 1": 0.38}
{"Target gene": "CG12519", "dsRNA no.": 2, "z-score, replicate 1": 0.08}

2 consecutive entries already listed:
{"Target gene": "Cyt-c-p", "dsRNA no.": 1, "z-score, replicate 1": 0.31}
{"Target gene": "CG17359", "dsRNA no.": 1, "z-score, replicate 1": 0.39}
